In PubChem BioAssay AID248 (DTP/NCI, 2004):
The list does not hold the whole screen: it gathers tests that were run many times, whatever their T/C, doses with no T/C, and many T/C values between a quarter and a half above the control. Other doses and runs of a compound stand elsewhere. T/C: endpoint of the treated group in % of that of the vehicle group. Some doses have a count of surviving animals in place of a T/C: the source files T/C as zero there, which appears to mark a toxic dose or a test without result, not a measured value. Some doses without a T/C left all or most animals alive at the check, yet need not have been tolerated: survival well below the control is almost never listed, so the zero probably covers shortened survival too. Survivors were counted at the toxicity check, usually on the fifth day, unless a day is given; later deaths do not show. Schedules are NCI's codes, read here as Q, the interval in days (D) or hours (H), X, the number of doses. Some schedule codes hold Z or #, which are not explained here. Some molecules as drawn cover several salts, stereoisomers or complexes of the source; a dose is that of the sample tested. Some doses were run more than once; the results are listed from low to high. For survival time, this PubChem deposit counts one and a half times the control or more as active, and values a quarter to a half above the control carry no call in these data; other NCI protocols may use other cut-offs. Some T/C values carry the count of animals alive at the toxicity check (mostly the fifth day); where none is given, no animal had died by that day.

Test system: L1210 leukemia ip in BDF1 mice, survival T/C
Experiment: NCI In Vivo Anticancer Drug Screen. Data for tumor model L1210 Leukemia (intraperitoneal) in B6D2F1 (BDF1) mice
Conditions: higher T/C = longer survival
[1] = T/C endpoint: mean survival time, dose: 100.0 mg/kg/injection, schedule: Q01DX009 (ip), vehicle: saline with Tween-80
[2] = T/C endpoint: mean survival time, dose: 200.0 mg/kg/injection, schedule: Q01DX001 (ip), vehicle: saline
[3] = T/C endpoint: mean survival time, dose: 400.0 mg/kg/injection, schedule: Q01DX001 (ip), vehicle: saline
[4] = T/C endpoint: mean survival time, dose: 400.0 mg/kg/injection, schedule: Q04DX003 (ip), vehicle: saline with Tween-80
[5] = T/C endpoint: mean survival time, dose: 400.0 mg/kg/injection, schedule: Q01DX009 (ip), vehicle: Klucel (hydroxypropylcellulose) (HPC)
[6] = T/C endpoint: mean survival time, dose: 400.0 mg/kg/injection, schedule: Q01DX009 (ip), vehicle: saline with Tween-80
[7] = T/C endpoint: mean survival time, dose: 400.0 mg/kg/injection, schedule: Q04DX003 (ip), vehicle: saline
[8] = T/C endpoint: mean survival time, dose: 200.0 mg/kg/injection, schedule: Q01DX009 (ip), vehicle: saline with Tween-80

O=C1OC(c2ccccc2)CC1N1CCCCC1 (stereo not given)
survivor count (T/C endpoint: mean survival time, dose: 400.0 mg/kg/injection, schedule: Q01DX001 (ip), vehicle: saline sonified): 3 of 6

Nc1nc2ncc(CNc3ncc(C(=O)NC(CCC(=O)O)C(=O)O)s3)nc2c(=O)[nH]1 (stereo not given)
survivor count (T/C endpoint: mean survival time, dose: 200.0 mg/kg/injection, schedule: Q01DX001 (ip), vehicle: other): 1 of 6

COc1cc2c(cc1OC)-c1cc3cc(OC)c(OC)cc3c(C)[n+]1CC2 (tested in a mixture with another compound)
T/C [1]: 129 % of control [4 of 6 alive]

CNCCCN1c2ccccc2C(C)(C)c2ccccc21
survivor count [2]: 2 of 4 | survivor count [3]: 0 of 4

O=C(Nn1cn[nH]c1=S)Oc1ccccc1
survivor count [4]: 2 of 6

COc1ccccc1NCc1cccc([N+](=O)[O-])c1
survivor count [5]: 5 of 6

Oc1cc(-c2cc(O)c(O)c(O)c2)cc(O)c1O
survivor count [6]: 0 of 6

N=c1cc(-c2ccc(Cl)cc2)ss1
survivor count (T/C endpoint: mean survival time, dose: 300.0 mg/kg/injection, schedule: Q01DX009 (ip), vehicle: saline): 2 of 6 | survivor count [7]: 3 of 6

NC(N)=NNc1ccccc1
survivor count (T/C endpoint: mean survival time, dose: 200.0 mg/kg/injection, schedule: Q01DX009 (ip), vehicle: saline): 1 of 3

CN(C(=N)N)c1ccc(C(=O)Oc2ccc([N+](=O)[O-])cc2)cc1
survivor count (T/C endpoint: mean survival time, dose: 400.0 mg/kg/injection, schedule: Q01DX009 (ip), vehicle: water): 0 of 6 | survivor count (T/C endpoint: mean survival time, dose: 400.0 mg/kg/injection, schedule: Q04DX003 (ip), vehicle: water): 2 of 6

O=C(CCCN1CCC2(CC1)C(=O)NCN2c1ccccc1)c1ccc(F)cc1
T/C (T/C endpoint: mean survival time, dose: 25.0 mg/kg/injection, schedule: Q04DX003 (ip), vehicle: saline): 125 % of control | survivor count (T/C endpoint: mean survival time, dose: 100.0 mg/kg/injection, schedule: Q04DX003 (ip), vehicle: saline): 4 of 4 | survivor count [7]: 3 of 4

OC(c1ccccc1)C(O)c1ccccc1 (stereo not given)
survivor count (T/C endpoint: mean survival time, dose: 100.0 mg/kg/injection, schedule: Q01DX009 (ip), vehicle: Klucel (hydroxypropylcellulose) (HPC)): 3 of 6 | survivor count (T/C endpoint: mean survival time, dose: 200.0 mg/kg/injection, schedule: Q01DX009 (ip), vehicle: Klucel (hydroxypropylcellulose) (HPC)): 2 of 6 | survivor count [5]: 0 of 6

CSc1ncc(Br)c(Cl)n1
survivor count (T/C endpoint: mean survival time, dose: 50.0 mg/kg/injection, schedule: Q01DX001 (ip), vehicle: carboxymethylcellulose (CMC)): 2 of 4 | survivor count (T/C endpoint: mean survival time, dose: 100.0 mg/kg/injection, schedule: Q01DX001 (ip), vehicle: carboxymethylcellulose (CMC)): 1 of 4 | survivor count (T/C endpoint: mean survival time, dose: 200.0 mg/kg/injection, schedule: Q01DX001 (ip), vehicle: carboxymethylcellulose (CMC)): 0 of 4 | survivor count (T/C endpoint: mean survival time, dose: 400.0 mg/kg/injection, schedule: Q01DX001 (ip), vehicle: carboxymethylcellulose (CMC)): 0 of 4

CCC(=O)C(CCN1CCC(n2c(=O)[nH]c3ccccc32)CC1)(c1ccccc1)c1ccccc1
survivor count (T/C endpoint: mean survival time, dose: 1.56 mg/kg/injection, schedule: Q01DX009 (ip), vehicle: saline with Tween-80): 2 of 6 | survivor count (T/C endpoint: mean survival time, dose: 3.13 mg/kg/injection, schedule: Q01DX009 (ip), vehicle: saline with Tween-80): 3 of 6 | survivor count (T/C endpoint: mean survival time, dose: 12.5 mg/kg/injection, schedule: Q01DX009 (ip), vehicle: saline with Tween-80): 1 of 6 | survivor count (T/C endpoint: mean survival time, dose: 25.0 mg/kg/injection, schedule: Q01DX009 (ip), vehicle: saline with Tween-80): 2 of 6 | survivor count [8]: 6 of 6 | survivor count [6]: 3 of 6

CC(C)(C)c1ccc(N)cc1Br
survivor count (T/C endpoint: mean survival time, dose: 6.25 mg/kg/injection, schedule: Q01DX009 (ip), vehicle: saline with Tween-80): 6 of 6 | survivor count [1]: 6 of 6 | survivor count [8]: 0 of 6 | survivor count [4]: 2 of 6

N=C(N)SC1c2ccccc2-c2ccccc21
survivor count (T/C endpoint: mean survival time, dose: 100.0 mg/kg/injection, schedule: Q04DX002 (ip), vehicle: Klucel (hydroxypropylcellulose) (HPC)): 0 of 3 | survivor count (T/C endpoint: mean survival time, dose: 200.0 mg/kg/injection, schedule: Q04DX002 (ip), vehicle: Klucel (hydroxypropylcellulose) (HPC)): 0 of 3 | survivor count (T/C endpoint: mean survival time, dose: 400.0 mg/kg/injection, schedule: Q04DX002 (ip), vehicle: Klucel (hydroxypropylcellulose) (HPC)): 0 of 3

N#Cc1c(F)c(F)c(C(F)(F)F)c(F)c1F
survivor count (T/C endpoint: mean survival time, dose: 100.0 mg/kg/injection, schedule: Q01DX009 (ip), vehicle: other): 2 of 6 | survivor count (T/C endpoint: mean survival time, dose: 200.0 mg/kg/injection, schedule: Q01DX009 (ip), vehicle: other): 0 of 6 | survivor count (T/C endpoint: mean survival time, dose: 400.0 mg/kg/injection, schedule: Q01DX009 (ip), vehicle: other): 0 of 6

CCCCCCCCCCCC[N+](C)(C)Cc1cc(=O)c(O)co1
survivor count (T/C endpoint: mean survival time, dose: 100.0 mg/kg/injection, schedule: Q04DX002 (ip), vehicle: saline): 1 of 3 | survivor count (T/C endpoint: mean survival time, dose: 200.0 mg/kg/injection, schedule: Q04DX002 (ip), vehicle: saline): 0 of 3 | survivor count (T/C endpoint: mean survival time, dose: 400.0 mg/kg/injection, schedule: Q04DX002 (ip), vehicle: saline): 0 of 3

CS(=O)(=O)c1ccc(Sc2ccc(S(C)(=O)=O)cc2)cc1
survivor count (T/C endpoint: mean survival time, dose: 100.0 mg/kg/injection, schedule: Q04DX003 (ip), vehicle: saline with Tween-80): 3 of 6 | survivor count (T/C endpoint: mean survival time, dose: 200.0 mg/kg/injection, schedule: Q04DX003 (ip), vehicle: saline with Tween-80): 1 of 6 | survivor count [4]: 0 of 6

O=C(/C=C(\Cl)c1ccc2c(c1)OCO2)OC/C=C\c1ccc2c(c1)OCO2
survivor count (T/C endpoint: mean survival time, dose: 400.0 mg/kg/injection, schedule: Q01DX001 (ip), vehicle: Klucel (hydroxypropylcellulose) (HPC)): 6 of 6

CO[C@H](C(=O)[C@@H](O)[C@@H](C)O)[C@@H]1Cc2cc3cc(OC4CC(OC5CC(O)C(O)C(C)O5)C(O)C(C)O4)c(C)c(O)c3c(O)c2C(=O)[C@H]1OC1CC(OC2CC(OC3CC(C)(O)C(O)C(C)O3)C(O)C(C)O2)C(O)C(C)O1 (stereo not given in full)
survivor count (T/C endpoint: mean survival time, dose: 1.0 mg/kg/injection, schedule: Q01DX001 (ip), vehicle: water): 0 of 6 | survivor count (T/C endpoint: mean survival time, dose: 1.0 mg/kg/injection, schedule: Q01DX001 (iv), vehicle: water): 2 of 4 | survivor count (T/C endpoint: mean survival time, dose: 2.0 mg/kg/injection, schedule: Q01DX001 (ip), vehicle: water): 1 of 6 | survivor count (T/C endpoint: mean survival time, dose: 2.0 mg/kg/injection, schedule: Q01DX Z (ip), vehicle: saline): 2 of 6 | survivor count (T/C endpoint: mean survival time, dose: 2.5 mg/kg/injection, schedule: Q01DX001 (ip), vehicle: saline): 1 of 6 | survivor count (T/C endpoint: mean survival time, dose: 4.0 mg/kg/injection, schedule: Q01DX001 (ip), vehicle: saline): 2 of 4 | survivor count (T/C endpoint: mean survival time, dose: 5.0 mg/kg/injection, schedule: Q01DX001 (ip), vehicle: saline): 3 of 6 | survivor count (T/C endpoint: mean survival time, dose: 10.0 mg/kg/injection, schedule: Q01DX001 (ip), vehicle: saline): 2 of 6 | survivor count (T/C endpoint: mean survival time, dose: 20.0 mg/kg/injection, schedule: Q01DX001 (ip), vehicle: saline): 0 of 4 and 1 of 6 | survivor count (T/C endpoint: mean survival time, dose: 40.0 mg/kg/injection, schedule: Q01DX001 (ip), vehicle: saline): 0 of 4 | survivor count (T/C endpoint: mean survival time, dose: 50.0 mg/kg/injection, schedule: Q01DX001 (ip), vehicle: saline): 0 of 4 | survivor count (T/C endpoint: mean survival time, dose: 80.0 mg/kg/injection, schedule: Q01DX001 (ip), vehicle: saline): 0 of 4 | survivor count (T/C endpoint: mean survival time, dose: 100.0 mg/kg/injection, schedule: Q01DX001 (ip), vehicle: saline): 0 of 4 | survivor count [2]: 0 of 4 | survivor count [3]: 0 of 4 | survivor count (T/C endpoint: mean survival time, dose: 2000.0 micrograms/kg/injection, schedule: Q01DX009 (ip), vehicle: clinical formulation): 3 of 10 | survivor count (T/C endpoint: mean survival time, dose: 2000.0 micrograms/kg/injection, schedule: Q01DX009 (ip), vehicle: saline): 2 of 10 | T/C (T/C endpoint: median survival time, dose: 1.0 mg/kg/injection, schedule: Q01DX009 (ip), vehicle: saline): 127 and 137 % of control | survivor count (T/C endpoint: median survival time, dose: 2.0 mg/kg/injection, schedule: Q01DX009 (ip), vehicle: saline): 2 of 6 and 3 of 6
